Data: patent US20240376207A1
Residue numbers refer to the chain shown, from its start. No constants are given. Whether binding was seen depends on the method and setting. Binding can be weak; no strength is given.

By UniProt entry, the sequences of proteins in these tests, tags left out. Where a name states a change or a piece, a line headed by the entry shows the natural chain unless it says otherwise.
UniProt Q6DKI7: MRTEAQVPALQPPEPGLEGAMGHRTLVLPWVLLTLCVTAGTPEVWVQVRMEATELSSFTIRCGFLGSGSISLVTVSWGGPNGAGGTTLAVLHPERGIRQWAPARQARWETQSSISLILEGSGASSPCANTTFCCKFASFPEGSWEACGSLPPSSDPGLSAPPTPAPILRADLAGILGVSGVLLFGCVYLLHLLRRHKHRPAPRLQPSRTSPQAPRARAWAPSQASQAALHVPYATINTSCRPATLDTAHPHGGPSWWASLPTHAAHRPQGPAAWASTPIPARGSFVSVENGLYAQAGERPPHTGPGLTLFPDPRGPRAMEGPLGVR

B1: humanized anti-PVRIG antibody 20H5 (antibody, human IgG4 S228P, F234A L235A, V domains shown)
VH: EVQLVESGGGLVQPGGSLRLSCAASGYTSRTDCMGWFRQAPGKEHEGVAHIDSDGIPRYVDSVKGRFTISQDHAKNSLYLQMNSLRAEDTAVYYCVVGFKFDEDYCAPNDWGQGTMVTVSS
B2: humanized anti-PVRIG antibody 30H2 (antibody, human IgG4 S228P, F234A L235A, V domains shown)
VH: EVQLVESGGGLVQPGGSLRLSCAASGFTFSGDCMGWFRQAPGKGLDEGVATIDNAGRIKYADSVKGRFTISRDNAKNSLYLQMNSLRAEDTAVYYCAAGWTFGGQCSPADWGQGTQVTVSS
B3: humanized anti-PVRIG antibody 30H3 (antibody, human IgG4 S228P, F234A L235A, V domains shown)
VH: B2 VH with F27Y, T28S, F29Y
B4: anti-PVRIG antibody 30 (antibody, human IgG4 S228P, F234A L235A, V domains shown)
VH: HVQLVESGGGSVQAGGSLRLSCEASGYSYSGDCMGWFRRAPGKERDEGVATIDNAGRIKYADSVKGRFTISHGNGKYILYLQMNSLKPEDTDMYYCAAGWTFGGNCSPADWGQGTQVTVSS
B5: humanized anti-PVRIG antibody 39H1 (antibody, human IgG4 S228P, F234A L235A, V domains shown)
VH: EVQLVESGGGLVQPGGSLRLSCAASGFTFSTDCMGWFRQAPGKGLEGVAHIDSDGIPRYVESVKGRFTISRDNAKNSLYLQMNSLRAEDTAVYYCVVGFKFGDYCAPNDWGQGTMVTVSS
B6: humanized anti-PVRIG antibody 39H2 (antibody, human IgG4 S228P, F234A L235A, V domains shown)
VH: B5 VH with F29S, S30R
B7: humanized anti-PVRIG antibody 39H4 (antibody, human IgG4 S228P, F234A L235A, V domains shown)
VH: B5 VH with F27Y, F29S, S30R, R71Q, N73H
B8: humanized anti-PVRIG antibody 151H7 (antibody, human IgG4 S228P, F234A L235A, V domains shown)
VH: HVQLVESGGGLVQPGGSLRLSCVASASGFTYRPYCMAWFRQAPGKEREAVAGIDIFGGTTYADSVKGRFTASRDNAGFSLYLQMNSLRAEDTAVYYCAAGDSPDGRCPPLGQGLNYWGQGTMVTVSS
B9: anti-PVRIG antibody 38 (antibody, human IgG4 S228P, F234A L235A, V domains shown)
VH: QVQLVESGGGSVQAGGSLRLSCAASPSTYGPSDMAWFRQAPGKQREGVATISAAGRLTYYTDSVRGRFTISRDNAKNTMYLQMNSLKPEDTAMYYCAADFAGGSSLFADYKYWGQGTQVTVSS
B10: anti-PVRIG antibody 39 (antibody, human IgG4 S228P, F234A L235A, V domains shown)
VH: QVQLVESGGGSVQAGGSLRLSCAASRYTSRTDCMGWFRQAPGKEREGVAHIDSDGIPRYVESVKGRFTISQDHAKNTLYLQMNSLKPEDSATYYCVVGFKFGDYCAPNDWGQGTQVTVSS
B11: anti-PVRIG antibody 151 (antibody, human IgG4 S228P, F234A L235A, V domains shown)
VH: B8 VH with L11S, P14A, Y81F, S86D, R88K, A89P, V94M, M122Q
B12: positive antibody Tab5 (antibody, human IgG4 S228P, kappa, F234A L235A, V domains shown)
VH: EVQLVESGGGVVKPGGSLRLSCAASGFTFGTSSMNWVRQAPGKGLEWVAVISFDGTEIHYADSVKGRFTISRDNSKSTVFLQMNSLRPDDTALYYCAKGSGNIYFYSGMDVWGQGTTVTVSS
VL: DIQMTQSPSTLSASVGDRVTITCRAGQSISGWLAWFQQKPGKAPNLLIYETSTLESGVPSRFSGSGSGTEYTLTISSLQPDDFATYYCQQYYSYPLTFGQGTKVEIKR

Experiments:
[1] = biological target: his-tagged human PVRIG (h-PVRIG-his) recombinant protein (human) (UniProt Q6DKI7); test: BLI (Fortebio)
[2] = biological target: his-tagged human PVRIG (h-PVRIG-his) recombinant protein (human) (UniProt Q6DKI7); test: ELISA, coated antigen

Binder	binding [1]	binding [2]
B1	binds	–
B2	binds	–
B3	binds	–
B4	binds	binds
B5	binds	–
B6	binds	–
B7	binds	–
B8	binds	–
B9	binds	binds
B10	binds	binds
B11	binds	binds
B12	binds	–
